For the assay, the target named is ezrin (UniProt P15311). Nature of the assay: FRET or BRET; time-domain FLIM (TCSPC) of a TMA of paraffin embedded tissue; ezrin tagged by a Cy3-conjugated antibody, PKCα by an Alexa546 antibody; FRET read as a reduction in the ezrin-Cy3 lifetime; analysis in TRI2.

No constants are given. Whether binding was seen depends on the method and setting. In cells and extracts the contact can be indirect. Some results given as binding are weak or reduced against the parent protein; the word gives no strength.

1 substance from article PMC3910159 can be followed below.

For “Protein kinase C α (from UniProt P17252 1-672)”, the binding entry is on record as “binds”.
